Test results: US4548940A, “Pyridylaminoalkylaminopyrimidones useful as histamine H1 -antagonists” (Smith Kline & French Laboratories Limited, priority 1982, dated 1985)
Some entries share one result that the patent states for a list of compounds.

Chains of the proteins cited; added tags and fusions are not shown.
UniProt P31389, whole entry: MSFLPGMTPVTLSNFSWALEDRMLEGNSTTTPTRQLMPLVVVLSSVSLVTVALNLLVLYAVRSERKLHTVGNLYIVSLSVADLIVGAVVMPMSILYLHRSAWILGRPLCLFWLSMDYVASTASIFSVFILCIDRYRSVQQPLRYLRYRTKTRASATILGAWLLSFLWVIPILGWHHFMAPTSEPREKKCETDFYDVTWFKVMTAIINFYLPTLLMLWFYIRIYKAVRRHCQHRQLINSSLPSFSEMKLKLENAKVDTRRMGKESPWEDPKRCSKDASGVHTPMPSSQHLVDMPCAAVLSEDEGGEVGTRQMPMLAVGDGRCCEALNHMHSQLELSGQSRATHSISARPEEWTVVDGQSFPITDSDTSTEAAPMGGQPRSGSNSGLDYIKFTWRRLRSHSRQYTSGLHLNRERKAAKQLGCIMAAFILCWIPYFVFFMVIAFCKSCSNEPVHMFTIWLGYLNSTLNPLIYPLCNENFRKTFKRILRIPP

Molecular target: T1, histamine H1-receptor (Cavia porcellus, UniProt P31389)
T1 construct: an isolated portion of the guinea pig ileum; from tissue; host or cells: isolated guinea pig ileum
Assay: guinea pig ileum test (in vitro histamine H1-antagonist activity)
Conditions: isolated guinea pig ileum, histamine-induced contraction, 8 min contact, 30° C., magnesium free Tyrode solution

pA2 value, greater than 6:
Cc1ccc(Cc2cnc(NCCCNc3ncc(F)cc3C)[nH]c2=O)cn1 (single isomer, unassigned) [Example 14, 2-[3-(5-fluoro-3-methylpyrid-2-yl-amino)propylamino]-5-(6-methylpyrid-3-ylmethyl)-4-pyrimidone]
Cc1ccc(Cc2cnc(NCCCNc3ccccn3)[nH]c2=O)cn1 [Example 1, 2-[3-(pyrid-2-ylamino)propylamino]-5-(6-methylpyrid-3-ylmethyl)-4-pyrimidone]
Cc1ccc(NCCCNc2ncc(Cc3ccc(C)nc3)c(=O)[nH]2)nc1 [Example 2, 2-[3-(5-methylpyrid-2-ylamino)propylamino]-5-(6-methylpyrid-3-ylmethyl)-4-pyrimidone]
Cc1ccc(Cc2cnc(NCCCNc3ccc(Cl)cn3)[nH]c2=O)cn1 [Example 3, 2-[3-(5-chloropyrid-2-ylamino)propylamino]-5-(6-methylpyrid-3-ylmethyl)-4-pyrimidon]
Cc1ccc(Cc2cnc(NCCCNc3ccc(Br)cn3)[nH]c2=O)cn1 [Example 4, 2-[3-(5-bromopyrid-2-ylamino)propylamino]-5-(6-methylpyrid-3-ylmethyl)-4-pyrimidone]
Cc1ccc(Cc2cnc(NCCCNc3ccc(C(F)(F)F)cn3)[nH]c2=O)cn1 [Example 5, 2-[3-(5-trifluoromethylpyrid-2-ylamino)propylamino]-5-(6-methylpyrid-3-ylmethyl)-4-pyrimidone]
Cc1ccc(Cc2cnc(NCCCNc3ccc(C#N)cn3)[nH]c2=O)cn1 [Example 6, 2-[3-(5-cyanopyrid-2-ylamino)propylamino]-5-(6-methylpyrid-3-ylmethyl)-4-pyrimidone]
Cc1ccc(Cc2cnc(NCCCNc3ncccc3C)[nH]c2=O)cn1 [Example 7, 2-[3-(3-methylpyrid-2-ylamino)propylamino]-5-(6-methylpyrid-3-ylmethyl)-4-pyrimidone]
Cc1ccc(Cc2cnc(NCCCNc3ncccc3Cl)[nH]c2=O)cn1 [Example 8, 2-[3-(3-chloropyrid-2-ylamino)propylamino]-5-(6-methylpyrid-3-ylmethyl)-4-pyrimidone]
Cc1ccc(Cc2cnc(NCCCNc3ncc(Br)cc3Br)[nH]c2=O)cn1 [Example 9, 2-[3-(3,5-dibromopyrid-2-ylamino)propylamino]-5-(6-methylpyrid-3-ylmethyl)-4-pyrimidone]
Cc1ccc(Cc2cnc(NCCCNc3ncc(Cl)cc3Cl)[nH]c2=O)cn1 [Example 10, 2-[3-(3,5-dichloropyrid-2-ylamino)propylamino]-5-(6-methylpyrid-3-ylmethyl)-4-pyrimidone]
Cc1ccc(Cc2cnc(NCCCNc3ncc(Br)cc3C)[nH]c2=O)cn1 [Example 11, 2-[3-(5-bromo-3-methylpyrid-2-ylamino)propylamino]-5-(6-methylpyrid-3-ylmethyl)-4-pyrimidone]
Cc1ccc(Cc2cnc(NCCCNc3ncc(Cl)cc3C)[nH]c2=O)cn1 [Example 12, 2-[3-(5-chloro-3-methylpyrid-2-ylamino)propylamino]-5-(6-methylpyrid-3-ylmethyl)-4-pyrimidone]
Cc1ccc(Cc2cnc(NCCCNc3ncc([N+](=O)[O-])cc3C)[nH]c2=O)cn1 [Example 13, 2-[3-(3-methyl-5-nitropyrid-2-ylamino)propylamino]-5-(6-methylpyrid-3-ylmethyl)-4-pyrimidone]
Cc1cnc(NCCCNc2ncc(Cc3ccc(C)nc3)c(=O)[nH]2)c(C)c1 [Example 15, 2-[3-(3,5-dimethylpyrid-2-ylamino)propylamino]-5-(6-methylpyrid-3-ylmethyl)-4-pyrimidone]
O=c1[nH]c(NCCCNc2ccccn2)ncc1Cc1ccc(Cl)cc1 [Example 16, 5-(4-chlorobenzyl)-2-[3-(pyrid-2-ylamino)propylamino]-4-pyrimidone]
O=c1[nH]c(NCCCNc2ncccc2Cl)ncc1Cc1ccc(Cl)cc1 [Example 17, 5-(4-chlorobenzyl)-2-[3-(3-chloropyrid-2-ylamino)propylamino]-4-pyrimidone]
Cc1cc(Cl)cnc1NCCCNc1ncc(Cc2ccncc2)c(=O)[nH]1 [Example 18, 2-[3-(5-chloro-3-methylpyrid-2-ylamino)propylamino]-5-(4-pyridylmethyl)-4-pyrimidone]
Cc1ccc(Cc2cnc(NCCCCNc3ccccn3)[nH]c2=O)cn1 [Example 19, 2-[4-(pyrid-2-ylamino)butylamino]-5-(6-methylpyrid-3-ylmethyl)-4-pyrimidone]
Cc1ccc(Cc2cnc(NCCNc3ccc(Cl)cn3)[nH]c2=O)cn1 [Example 20, 2-[2-(5-chloropyrid-2-ylamino)ethylamino]-5-(6-methylpyrid-3-ylmethyl)-4-pyrimidone]
Cc1ccc(Cc2cnc(NCCCCNc3ccc(Cl)cn3)[nH]c2=O)cn1 [Example 21, 2-[4-(5-chloropyrid-2-ylamino)butylamino]-5-(6-methylpyrid-3-ylmethyl)-4-pyrimidone]
Cc1ccc(Cc2cnc(NCCCCNc3ncccc3Cl)[nH]c2=O)cn1 [Example 22, 2-[4-(3-chloropyrid-2-ylamino)-butylamino]-5-(6-methylpyrid-3-ylmethyl)-4-pyrimidone]
Cc1ccc(Cc2cnc(NCCNc3ncc(Cl)cc3C)[nH]c2=O)cn1 [Example 23, 2-[2-(5-chloro-3-methylpyrid-2-ylamino)ethylamino]-5-(6-methylpyrid-3-ylmethyl)-4-pyrimidone]
Cc1ccc(Cc2cnc(NCCCCNc3ncc(Cl)cc3C)[nH]c2=O)cn1 [Example 24, 2-[4-(5-chloro-3-methylpyrid-2-ylamino)butylamino]-5-(6-methylpyrid-3-ylmethyl)-4-pyrimidone]
Cc1cc(Cl)cnc1NCCCNc1ncc(Cc2ccc(CO)nc2)c(=O)[nH]1 [Example 25, 2-[3-(5-chloro-3-methylpyrid-2-ylamino)propylamino]-5-(6-hydroxymethylpyrid-3-ylmethyl)-4-pyrimidone]
O=c1[nH]c(NCCCNc2ncc(Cl)cc2Cl)ncc1Cc1ccc(CO)nc1 [Example 26, 2-[3-(3,5-dichloropyrid-2-ylamino)propylamino]-5-(6-hydroxymethylpyrid-3-ylmethyl)-4-pyrimidone]
Cc1ccnc(NCCCNc2ncc(Cc3ccc(C)nc3)c(=O)[nH]2)c1 [Example 27, 2-[3-(4-methylpyrid-2-ylamino)propylamino]-5-(6-methylpyrid-3-ylmethyl)-4-pyrimidone]
Cc1ccc(Cc2cnc(NCCCNc3cccc(C)n3)[nH]c2=O)cn1 [Example 28, 2-[3-(6-methylpyrid-2-ylamino)propylamino]-5-(6-methylpyrid-3-ylmethyl)-4-pyrimidone]
